For the experiment, the target named is putative phosphatase 11 (PP11), annotated as a myo-inositol-1(or 4)-monophosphatase (IMP), Aquifex aeolicus (Aquifex aeolicus) (UniProt O67791). As to the kind of experiment: crystal structure; hanging drop, 75 mM Hepes pH 7.5, 70% MPD, room temperature; P21, 1.75 Å, molecular replacement with 2PCR; both purified.

No constants are given. Whether binding was seen depends on the method and setting. Some binding calls cover weakened binding; strength is not graded here.

B1: putative phosphatase 11 (PP11), annotated as a myo-inositol-1(or 4)-monophosphatase (IMP), Aquifex aeolicus (enzyme)
chain: MENLKKYLEVAKIAALAGGQVLKENFGKVKKENIEEKGEKDFVSYVDKTSEERIKEVILKFFPDHEVVGEEMGAEGSGSEYRWFIDPLDGTKNYINGFPIFAVSVGLVKGEEPIVGAVYLPYFDKLYWGAKGLGAYVNGKRIKVKDNESLKHAGVVYGFPSRSRRDISIYLNIFKDVFYEVGSMRRPGAAAVDLCMVAEGIFDGMMEFEMKPWDITAGLVILKEAGGVYTLVGEPFGVSDIIAGNKALHDFILQVAKKYMEVAV
notes: Aquifex aeolicus putative phosphatase 11, annotated as myo-inositol-1(or 4)-monophosphatase; codon optimised, in pET20b with a stop codon before the C-terminal histidine tag so that the protein is expressed in the native form; Untagged; Two magnesium ions and a phosphate in the active site of the structure; source: E. coli BL21 (DE3), purified (heat 70 °C, gel filtration)
Consider B1, for which the binding entry is “binds”.

The values are drawn from publication PMC12051542, “Identification of the phosphatase essential for riboflavin biosynthesis in Aquifex aeolicus” (The Journal of Biological Chemistry, 2025).
